Data taken from publication PMC4678859.
No constants are given. Whether binding was seen depends on the method and setting. For some of these results: Binding seen in cells or lysates may run through a third protein. Some binding calls cover weakened binding; strength is not graded here. For some of these results: Where a sequence is shown, tags or fusion partners need not be part of it.

Sequences of proteins named here, by UniProt entry; tags and fusion partners are left off.
UniProt Q9UKV8: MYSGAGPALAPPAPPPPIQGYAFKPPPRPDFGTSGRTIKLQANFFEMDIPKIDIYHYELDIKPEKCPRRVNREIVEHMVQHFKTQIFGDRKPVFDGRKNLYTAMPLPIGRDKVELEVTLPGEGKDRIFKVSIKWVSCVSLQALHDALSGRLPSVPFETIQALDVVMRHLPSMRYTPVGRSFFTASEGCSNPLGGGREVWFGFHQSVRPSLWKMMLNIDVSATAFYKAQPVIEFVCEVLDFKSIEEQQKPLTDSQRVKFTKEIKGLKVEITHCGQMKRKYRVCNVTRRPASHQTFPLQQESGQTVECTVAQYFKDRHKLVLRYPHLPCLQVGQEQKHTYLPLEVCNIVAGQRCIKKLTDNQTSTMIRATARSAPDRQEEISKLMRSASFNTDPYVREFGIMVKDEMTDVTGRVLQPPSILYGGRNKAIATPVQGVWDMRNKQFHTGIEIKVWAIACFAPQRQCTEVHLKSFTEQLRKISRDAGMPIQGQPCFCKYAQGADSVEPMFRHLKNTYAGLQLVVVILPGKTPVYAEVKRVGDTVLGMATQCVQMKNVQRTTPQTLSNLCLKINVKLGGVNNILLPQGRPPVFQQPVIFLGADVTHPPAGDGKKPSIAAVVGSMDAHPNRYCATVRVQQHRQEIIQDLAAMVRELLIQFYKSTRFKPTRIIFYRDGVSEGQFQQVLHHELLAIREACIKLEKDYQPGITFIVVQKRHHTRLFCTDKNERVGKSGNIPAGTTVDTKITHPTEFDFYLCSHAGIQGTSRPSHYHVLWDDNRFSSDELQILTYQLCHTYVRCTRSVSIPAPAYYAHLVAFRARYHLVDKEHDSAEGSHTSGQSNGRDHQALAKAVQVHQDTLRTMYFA

Legend:
[1] = molecular target: Argonaute-2 (Ago-2), endogenous in nuclear extracts of HCT116 cells (human (endogenous in HCT116)) (UniProt Q9UKV8); experiment: co-IP; 100 ug total protein of nuclear extracts from HCT116 cells, non-stress or after UV treatment, samples treated with RNase A; IPed with anti-PARN or anti-Ago-2; pellets and supernatants immunoblotted for PARN and Ago-2
[2] = molecular target: GST-Ago-2 (full-length recombinant Ago-2) (UniProt Q9UKV8); experiment: pull-down; His-PARN immobilised on nickel beads incubated with GST-Ago-2; and GST-Ago-2 immobilised on glutathione beads incubated with His-PARN, His-NTD-PARN or His-CTD-PARN; no miRNA added; bound proteins detected by immunoblotting; both purified

| Binder | binding [1] | binding [2] |
| --- | --- | --- |
| His-NTD-PARN (N-terminal domain of PARN, aa 1-470) (domain or fragment, UniProt O95453 1-470) MEIIRSNFKSNLHKVYQAIEEADFFAIDGEFSGISDGPSVSALTNGFDTPEERYQKLKKHSMDFLLFQFGLCTFKYDYTDSKYITKSFNFYVFPKPFNRSSPDVKFVCQSSSIDFLASQGFDFNKVFRNGIPYLNQEEERQLREQYDEKRSQANGAGALSYVSPNTSKCPVTIPEDQKKFIDQVVEKIEDLLQSEENKNLDLEPCTGFQRKLIYQTLSWKYPKGIHVETLETEKKERYIVISKVDEEERKRREQQKHAKEQEELNDAVGFSRVIHAIANSGKLVIGHNMLLDVMHTVHQFYCPLPADLSEFKEMTTCVFPRLLDTKLMASTQPFKDIINNTSLAELEKRLKETPFNPPKVESAEGFPSYDTASEQLHEAGYDAYITGLCFISMANYLGSFLSPPKIHVSARSKLIEPFFNKLFLMRVMDIPYLNLEGPDLQPKRDHVLHVTFPKEWKTSDLYQLFSAFGN |  | binds |
| His-CTD-PARN (C-terminal domain of PARN, aa 443-639) (domain or fragment, UniProt O95453 443-639) KRDHVLHVTFPKEWKTSDLYQLFSAFGNIQISWIDDTSAFVSLSQPEQVKIAVNTSKYAESYRIQTYAEYMGRKQEEKQIKRKWTEDSWKEADSKRLNPQCIPYTLQNHYYRNNSFTAPSTVGKRNLSPSQEEAGLEDGVSGEISDTELEQTDSCAEPLSEGRKKAKKLKRMKKELSPAGSISKNSPATLFEVPDTW |  | no binding |

Next, values leading:

| binding [1] | binding [2] | Binder |
| --- | --- | --- |
| binds |  | Poly(A) specific ribonuclease (PARN), endogenous in nuclear extracts of HCT116 cells (enzyme, UniProt O95453 1-639) MEIIRSNFKSNLHKVYQAIEEADFFAIDGEFSGISDGPSVSALTNGFDTPEERYQKLKKHSMDFLLFQFGLCTFKYDYTDSKYITKSFNFYVFPKPFNRSSPDVKFVCQSSSIDFLASQGFDFNKVFRNGIPYLNQEEERQLREQYDEKRSQANGAGALSYVSPNTSKCPVTIPEDQKKFIDQVVEKIEDLLQSEENKNLDLEPCTGFQRKLIYQTLSWKYPKGIHVETLETEKKERYIVISKVDEEERKRREQQKHAKEQEELNDAVGFSRVIHAIANSGKLVIGHNMLLDVMHTVHQFYCPLPADLSEFKEMTTCVFPRLLDTKLMASTQPFKDIINNTSLAELEKRLKETPFNPPKVESAEGFPSYDTASEQLHEAGYDAYITGLCFISMANYLGSFLSPPKIHVSARSKLIEPFFNKLFLMRVMDIPYLNLEGPDLQPKRDHVLHVTFPKEWKTSDLYQLFSAFGNIQISWIDDTSAFVSLSQPEQVKIAVNTSKYAESYRIQTYAEYMGRKQEEKQIKRKWTEDSWKEADSKRLNPQCIPYTLQNHYYRNNSFTAPSTVGKRNLSPSQEEAGLEDGVSGEISDTELEQTDSCAEPLSEGRKKAKKLKRMKKELSPAGSISKNSPATLFEVPDTW |
|  | binds | His-PARN (full-length recombinant PARN) (enzyme, UniProt O95453 1-639) MEIIRSNFKSNLHKVYQAIEEADFFAIDGEFSGISDGPSVSALTNGFDTPEERYQKLKKHSMDFLLFQFGLCTFKYDYTDSKYITKSFNFYVFPKPFNRSSPDVKFVCQSSSIDFLASQGFDFNKVFRNGIPYLNQEEERQLREQYDEKRSQANGAGALSYVSPNTSKCPVTIPEDQKKFIDQVVEKIEDLLQSEENKNLDLEPCTGFQRKLIYQTLSWKYPKGIHVETLETEKKERYIVISKVDEEERKRREQQKHAKEQEELNDAVGFSRVIHAIANSGKLVIGHNMLLDVMHTVHQFYCPLPADLSEFKEMTTCVFPRLLDTKLMASTQPFKDIINNTSLAELEKRLKETPFNPPKVESAEGFPSYDTASEQLHEAGYDAYITGLCFISMANYLGSFLSPPKIHVSARSKLIEPFFNKLFLMRVMDIPYLNLEGPDLQPKRDHVLHVTFPKEWKTSDLYQLFSAFGNIQISWIDDTSAFVSLSQPEQVKIAVNTSKYAESYRIQTYAEYMGRKQEEKQIKRKWTEDSWKEADSKRLNPQCIPYTLQNHYYRNNSFTAPSTVGKRNLSPSQEEAGLEDGVSGEISDTELEQTDSCAEPLSEGRKKAKKLKRMKKELSPAGSISKNSPATLFEVPDTW |
